What was measured:
[1] = test system: male C57BL/6J mice fed C or WD; assay: Intervention study: MLN4924 initiated after 8 weeks of WD feeding; format: in vivo; conditions: WD 16 weeks; 60 mg/kg SQ every other day for last 8 weeks
Procedure: MLN4924 (60 mg/kg, SQ) was given every other day for the last 8 weeks of the 16-week feeding. For both cohorts, body weight was measured weekly. Results are mean ±SEM. n=5-7. “*”, vs C+Veh; “#”, vs. WD+Veh, p<0.05. ns= Not significant.
Male C57BL/6J mice were fed chow or WD for 16 weeks. Vehicle or MLN4924 treatment (60 mg/kg, SQ, once every two days) was initiated after 8 weeks of WD feeding. Analyses were performed after 16 weeks of feeding. Results are mean ± SEM. n=5-8. “*”, vs C+Veh; “#”, vs. WD+Veh, p<0.05. Normalized densitometry was shown in low panel bar graphs.
Male C57BL/6J mice were purchased from the Jackson Laboratory (Bar Harbor, ME). Mice were fed a regular chow (C) diet or a Western diet (WD) that contains 42% fat calories and 0.2% cholesterol content (TD. 88137, Envigo Inc. Indianapolis, IN).
MLN4924 and TAS4464 were purchased from MedChemExpress (MCE, Monmouth Junction, NJ). For cell treatment, MLN4924 and TAS4464 were dissolved in DMSO. Cells were serum starved overnight and then treated with MLN4924, TAS4464 and/or insulin as indicated. For injection in mice, MLN4924 and TAS4464 were first dissolved in DMSO, which was further suspended in 10% (2-hydroxypropyl)-β-cyclodextrin (Sigma, St. Louis, MO). The final solution contains 1% DMSO. The subcutaneous injection volume is 200 µl/mouse.
Lipids were extracted in a mixture of chloroform: methanol (2:1; v: v), dried under nitrogen, and resuspended in isopropanol containing 1% triton X-100. Total cholesterol, free cholesterol and TG were measured with assay kits following the manufacturer’s instruction. Total cholesterol assay kit and TG assay kit were purchased from Pointe Scientific (Canton, MI).
Aspartate aminotransferase (AST) and alanine aminotransferase (ALT) assay kits were purchased from Pointe Scientific (Canton, MI). Free fatty acid assay kit was purchased from Biovision Inc. (Milpitas, CA). Insulin ELISA kit was purchased from Crystal Chem Inc. (Elk Grove Village, IL).
Next investigated was the glucose lowering effect of CRL inhibition in mice rendered obese and insulin resistant by 16-weeks of WD feeding. […] Next conducted was an intervention study in which MLN4924 treatment was initiated after mice were fed WD for 8 weeks that rendered mice obese and insulin resistant. […] In summary, robust evidence is provided herein that pharmacological CRL inhibition is an effective approach to lowering hyperglycemia.

[2] = test system: male C57BL/6J mice fed Chow or Western diet; assay: MLN4924 intervention for 9 weeks in 16-week WD-fed mice (Experimental II); format: in vivo
Procedure: Chronic MLN4924 treatment attenuates hepatic steatosis in Western diet-fed mice. Male C57BL/6J mice were fed Chow (C) or Western diet (WD) for 16 weeks. MLN4924 treatment (60 mg/kg, SQ, every other day) was initiated after mice were fed WD for 7 weeks as indicated. Control mice were injected with vehicle. After 16 weeks of feeding, mice were fasted from 9 am to 3 pm and euthanized. Scale bar = 125 µm. […]
WT male C57BL/6J mice were purchased from the Jackson Lab (Bar Harbor, ME). Western diet (TD. 88137, Envigo Inc. Indianapolis, IN) contains 42% fat calories and 0.2% cholesterol. Mice were housed in micro-isolator cages with corn cob bedding under 7 am - 7 pm light cycle and 7 pm -7 am dark cycle. MLN4924 was prepared in 10% 2-hydroxypropyl-b-cyclodextrin to a final concentration of 3 mg/ml. All mice were fasted for 6 h from 9 am to 3 pm before euthanasia. All animals received humane care according to the criteria outlined in the “Guide for the Care and Use of Laboratory Animals.” All animal protocols were approved by the Institutional Animal Care and Use Committee at the University of Kansas Medical Center and the University of Oklahoma Health Sciences Center. […]
Human normal livers (less than 5% steatosis) and histologically confirmed NASH livers were obtained from either the University of Kansas Liver Center or the Liver Tissue Cell Distribution System (LTCDS) at the University of Minnesota. Human and mouse tissue samples were homogenized in 1XRIPA buffer containing 1% SDS and protease inhibitors. After incubation on ice for 1 hour, the samples were centrifugation and supernatant was transferred to a new tube. The protein lysate was mixed with equal volume of 2X laemmli buffer and incubated at 95° C. for 5 minutes and used for SDS-PAGE and immunoblotting. ImageJ software (NIH) was used to determine band intensity.
Total liver RNA was purified with Trizol (Sigma-Aldrich, St. Louis, MO). […] The relative mRNA expression was expressed as 2 ^-ΔΔCt with the control group arbitrarily set as “1”. […]

NS(=O)(=O)OC[C@@H]1C[C@@H](n2ccc3c(N[C@H]4CCc5ccccc54)ncnc32)C[C@@H]1O [MLN4924, ((1S,2S,4R)-4-(4-((1S)-2,3-dihydro-1H-inden-1-ylamino)-7H-pyrrolo[2,3-d]pyrimidin-7-yl)-2-hydroxycyclopentyl) methyl sulfamate] was tested. Which “adiposity as reflected by gonadal fat” value [1] did it give?
The value was “did not affect”.

And the liver glycogen [1]?
Its liver glycogen is “did not affect”.

What about the “obesity (body weight)” value [1] of the same compound?
The value was “did not affect”.

What about the serum fatty acids [1] of the same compound?
Its serum fatty acids is “did not affect”.

And the diet-induced obesity ([2]; SQ 60 mg/kg once every 2 days)?
Its diet-induced obesity is “did not affect diet-induced obesity”.

And the “adiposity (gonadal fat pad weight)” value ([2]; WD-fed mice)?
The value was “does not affect adiposity”.

And the “circulating (serum free) fatty acids” value ([2]; WD-fed mice)?
The value was “does not affect circulating fatty acids”.

— patent publication US20230218654A1, “COMPOSITIONS AND METHODS FOR TREATING HYPERGLYCEMIA IN TYPE-2 DIABETES” (The Board of Regents of the university of Oklahoma, priority 2020, published 2023)
